According to publication PMC7761982, “FDA-Approved Drugs with Potent In Vitro Antiviral Activity against Severe Acute Respiratory Syndrome Coronavirus 2” (Pharmaceuticals, 2020):

Experiment: in vitro
Conditions: African green monkey, CC50 (Vero-E6)

Compound `CC1=C(C(=O)O)N2C(=O)[C@@H](NC(=O)[C@H](N)c3ccccc3)[C@H]2SC1` [Cephalexin] has a CC50 of 523 µM.
